The experiment has as its target Stanniocalcin-2 (human (endogenous in human nasopharyngeal carcinoma cell lines 6-10B / CNE1)) (UniProt O76061). The experiment in a line: affinity purification with mass spectrometry; immunoprecipitation from cell lysate with anti-STC2 antibody, SDS-PAGE and silver staining, mass spectrometry of the co-precipitated proteins.

Amino acid sequences for entries named in this document (tags omitted). Residues count along the entry.
UniProt O76061, residues 25-302: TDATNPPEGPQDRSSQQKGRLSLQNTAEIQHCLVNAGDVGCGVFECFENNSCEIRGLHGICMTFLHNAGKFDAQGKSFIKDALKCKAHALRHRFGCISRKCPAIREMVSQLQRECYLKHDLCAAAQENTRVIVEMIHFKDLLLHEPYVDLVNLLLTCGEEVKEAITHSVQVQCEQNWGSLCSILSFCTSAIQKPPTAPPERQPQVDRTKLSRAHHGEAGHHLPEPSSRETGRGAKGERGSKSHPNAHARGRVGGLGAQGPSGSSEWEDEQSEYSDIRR
UniProt P05107, residues 23-769: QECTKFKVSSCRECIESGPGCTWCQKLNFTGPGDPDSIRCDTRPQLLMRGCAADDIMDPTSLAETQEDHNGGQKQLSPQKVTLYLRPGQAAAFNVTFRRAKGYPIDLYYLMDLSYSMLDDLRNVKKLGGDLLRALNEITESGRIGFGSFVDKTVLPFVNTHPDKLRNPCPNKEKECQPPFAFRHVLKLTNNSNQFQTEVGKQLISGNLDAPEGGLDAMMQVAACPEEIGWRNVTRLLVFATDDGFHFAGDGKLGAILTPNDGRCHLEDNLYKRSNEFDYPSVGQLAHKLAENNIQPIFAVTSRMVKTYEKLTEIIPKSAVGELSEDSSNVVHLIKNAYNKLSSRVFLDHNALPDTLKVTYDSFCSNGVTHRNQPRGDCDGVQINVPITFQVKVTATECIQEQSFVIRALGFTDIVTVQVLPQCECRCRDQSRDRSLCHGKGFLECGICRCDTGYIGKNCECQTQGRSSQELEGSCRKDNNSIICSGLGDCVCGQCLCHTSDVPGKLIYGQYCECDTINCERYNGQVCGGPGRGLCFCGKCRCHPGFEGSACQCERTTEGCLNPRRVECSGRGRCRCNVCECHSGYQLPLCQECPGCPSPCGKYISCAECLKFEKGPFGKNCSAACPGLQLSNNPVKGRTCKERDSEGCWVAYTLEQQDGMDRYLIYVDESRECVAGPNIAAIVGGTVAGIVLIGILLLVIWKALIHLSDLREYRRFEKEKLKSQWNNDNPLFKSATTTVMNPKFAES

No constants are given. Whether binding was seen depends on the method and setting. Binding seen in cells or lysates may run through a third protein. Here binding means that the protein was enriched with, or labelled near, the bait; the list need not be complete.

Take “integrin β2 (from UniProt P05107 23-769)”: the binding result is given as “binds”.
